# Measured values from the supplement of paper PMC3334620.
# The full ranking holds about 33,000 sequences; the median of “E-score (-0.5 to 0.5)” is about -0.015, and the highest 2% start at about 0.3. This is one part of the list.
# Target: T1, Abf1 (UniProt P14164)
# T1 sequence: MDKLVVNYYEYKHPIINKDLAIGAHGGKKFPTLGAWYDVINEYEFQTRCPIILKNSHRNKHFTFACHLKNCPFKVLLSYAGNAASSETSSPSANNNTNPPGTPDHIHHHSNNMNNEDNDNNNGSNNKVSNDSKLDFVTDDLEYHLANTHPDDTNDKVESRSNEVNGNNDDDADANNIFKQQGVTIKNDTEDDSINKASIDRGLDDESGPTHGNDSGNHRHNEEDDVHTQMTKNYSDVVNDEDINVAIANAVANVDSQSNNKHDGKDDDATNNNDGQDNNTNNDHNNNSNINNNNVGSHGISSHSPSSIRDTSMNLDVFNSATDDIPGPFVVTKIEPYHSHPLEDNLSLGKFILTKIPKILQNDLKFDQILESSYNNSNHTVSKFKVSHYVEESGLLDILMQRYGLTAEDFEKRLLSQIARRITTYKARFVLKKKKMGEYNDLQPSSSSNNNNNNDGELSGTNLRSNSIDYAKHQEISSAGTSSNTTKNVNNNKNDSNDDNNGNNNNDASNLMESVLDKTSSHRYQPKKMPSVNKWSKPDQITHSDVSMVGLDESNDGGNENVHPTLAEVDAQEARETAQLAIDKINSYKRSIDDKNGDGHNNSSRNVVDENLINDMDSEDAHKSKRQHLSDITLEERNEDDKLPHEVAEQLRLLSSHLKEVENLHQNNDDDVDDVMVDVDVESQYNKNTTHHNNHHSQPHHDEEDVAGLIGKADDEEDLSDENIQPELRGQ
# Assay: PBM E-score (8-mer binding enrichment) (E-score (-0.5 to 0.5)); higher = stronger / more preferred TF binding
# Conditions: protein concentration: 200 nM; construct: GST-full length
# Method in brief: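 E-scores (a modified Wilcoxon-Mann-Whitney statistic) were assigned by the Universal PBM Analysis Suite to every ungapped eight-base word pooled with its reverse complement. The input came from universal all-10-mer Agilent arrays made double-stranded by primer extension and probed with GST-tagged yeast transcription factors at about 100-200 nM. Fluorescent anti-GST detected bound protein, and masliner normalised the scans.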
row,Sequence,PBM E-score
1,GTGTGGTA,-0.0368
2,AAACGCAA,0.0157
3,ATATATGG,0.0135
4,ACCATATC,0.0983
5,CGAGGGCG,-0.171
6,ACACAGAC,0.0197
7,AGGTTAAA,-0.0493
8,ATTCTCAA,0.217
9,GCAGTTCC,-0.106
10,AGTACATA,0.0814
11,CAGCTTGA,-0.141
12,AGTCTAAG,0.0137
13,CTAGTTGA,-0.00191
14,CCCTGTAA,-0.159
15,ACTCAGTG,-0.087
16,CCTCGTCA,0.192
17,AATTAGAG,0.0856
18,AAAAAGCT,0.0693
19,CTCACTAC,0.203
20,AGAATATA,0.0825
21,AACGGGCA,-0.0317
22,AATGCATC,-0.0642
23,AAATGCTA,0.0313
24,TATGCAAA,-0.07
25,GGCCGACC,-0.165

row,Sequence,PBM E-score
1,ACGATTCA,0.226
2,AGGGTAAT,0.0413
3,CGCTCCCC,-0.178
4,TCCTCAAA,0.00233
5,ACGCAAGA,0.155
6,ATGGAAAG,-0.0545
7,GCAACCGC,-0.0536
8,GTCTCACA,0.0381
9,AGAGGGGA,-0.163
10,AACCGGCG,-0.0688
11,GATTGGAA,-0.006
12,GATACTAA,0.19
13,AAGTCATA,0.129
14,CCGTTTCA,0.0707
15,ACAGGTTG,-0.228
16,CAGTGTCA,-0.171
17,CCACGCTA,0.155
18,AGCCTCCG,-0.13
19,TACATAGA,0.093
20,CTCTACGA,0.189
21,CATTTCGG,-0.0384
22,CTGCTGCA,-0.168
23,CGCAGAAC,0.0104
24,CAGCGACA,0.0383
25,CGCGGAAA,-0.0356

row,Sequence,PBM E-score
1,GAAACACA,0.0862
2,GACCCATC,-0.112
3,AGTTTGAC,0.0137
4,ATCAAGAC,-0.0623
5,ACGGATAA,0.264
6,CCACTTCC,0.00801
7,CGCATCTC,0.0248
8,AGCACTCG,-0.131
9,AACTTTGA,0.0972
10,AGGAAAGA,-0.11
11,ACCCGTCG,0.0953
12,AGTCCTGG,-0.0844
13,CCATCCTC,-0.21
14,TCCTCGCA,-0.132
15,CAAAGATG,0.0356
16,GACGAATA,0.232
17,CGTACAGA,0.308
18,AAGGAATG,0.0105
19,ATCTTCAA,0.0356
20,AATATGAG,-0.0117
21,CTTGCCGA,0.0165
22,ATAACCTA,0.17
23,CCGCACCG,-0.105
24,ATTAGCTC,0.0751
25,ACCTCAGC,0.0792

# A second format for part of the listing above.
row | Sequence | PBM E-score
16 | GACGAATA | 0.232
17 | CGTACAGA | 0.308
18 | AAGGAATG | 0.0105

# Some of the entries so far, with bars between the fields:
row | Sequence | PBM E-score
18 | AGCCTCCG | -0.13
19 | TACATAGA | 0.093

# Next part

row,Sequence,PBM E-score
1,ACATTGAA,0.0551
2,ATCTAGCC,-0.063
3,CAGACTCG,-0.287
4,ACACGCTC,0.0285
5,GGGGCGCA,-0.225
6,CACTCGCC,-0.00715
7,GGGCCTGA,-0.187
8,AGGGCATG,-0.167
9,AGCCTACA,-0.17
10,ACCGTGAA,0.278
11,CCGGTACA,0.144
12,CAACAGCC,-0.119
13,ATGTCATC,0.394
14,CACGAAGA,0.316
15,ACAGGTGC,-0.298
16,ACTGATGG,-0.21
17,ACGGGCGA,-0.00147
18,ACGTAGTA,0.206
19,AGTGCCAG,-0.152
20,AGTGTATG,-0.0706
21,AGGCGTCA,-0.0931
22,ACGCTTAG,0.0744
23,AATCGTCT,0.269
24,AGACTACA,-0.0384
25,CAGGTTCG,-0.058

row,Sequence,PBM E-score
1,ATTTATGC,-0.0479
2,GACAAAAC,0.196
3,TTAAGTAA,0.0118
4,CTAAGGAC,0.0621
5,CGGGGACC,-0.146
6,ATTCCGAG,0.166
7,AAGCATTC,-0.073
8,AATACGTC,0.138
9,CTTACGCA,0.0889
10,TCATACAA,-0.0621
11,CCAGCTCG,-0.205
12,ATATTCTG,0.157
13,CTATTGAA,-0.161
14,CGGAGGCC,-0.298
15,CACTGGCA,-0.156
16,ATTACATC,0.0796
17,ATTAGCGA,0.136
18,ACTTGTCC,0.0261
19,CTAAGGTA,0.0359
20,GGTAGCTA,-0.16
21,TAGTGACA,0.414
22,AGGTATAT,0.0387
23,ACAAGCCT,-0.0911
24,AGATAAGG,0.00618
25,AGGGGATC,-0.0732

row,Sequence,PBM E-score
1,ATTGTCAG,0.141
2,AGCGACCC,-0.0656
3,GTCTGCAA,-0.0352
4,AGCCGCAG,-0.26
5,ACTGTACC,-0.0561
6,GAGAGACA,-0.0355
7,CGTAATCC,0.206
8,AGAAGCAG,-0.157
9,CATAGTGG,-0.179
10,AGATCGTC,0.266
11,TATCGCGA,0.34
12,ACCAACTG,-0.0158
13,ACAAGGTG,0.0662
14,GACGAGGA,0.131
15,CTCTGGTA,-0.152
16,AGCCGTGG,-0.0408
17,GACATTAC,0.16
18,AGGCCGAA,0.074
19,ATGATGAA,0.306
20,GGCGATAA,0.0146
21,CACATCCC,-0.0296
22,CCATTTAC,0.013
23,ATTTAGCC,0.0158
24,ACCCAGCG,-0.136
25,AAGGGATT,0.0664

row,Sequence,PBM E-score
1,ACTGAGGA,-0.181
2,AAAGAGGT,-0.0718
3,ACCACTAT,0.102
4,GATACAAC,0.171
5,ATTTACGG,0.0718
6,GACTCAAC,0.0509
7,ATTTTGAA,0.258
8,AGCAGATA,-0.0913
9,CTTGCATA,0.0552
10,CACCGTCG,0.105
11,TGCATGAA,-0.0459
12,CCACTAAC,-0.214
13,GATAGAGC,0.109
14,CGTGGGAA,0.187
15,GTATTAAC,0.178
16,TGCCAAAA,0.128
17,AAAGTTCA,-0.195
18,ACTTTACG,0.105
19,CGGCACGC,-0.0795
20,TAGCGGAA,-0.0226
21,ATCCACTG,-0.0849
22,ACAGCTAG,-0.181
